# Source: PubChem BioAssay AID504467 (National Center for Advancing Translational Sciences (NCATS), 2011)
# Among all 330,000 compounds or so, about 7,700 (2.3%) were called active. Inconclusive means that the source gave no clear call. Such entries were picked first, then a sample of the others. Calls follow the shape of the dose curve; as a rule, active = well fitted inhibition curve with a large enough effect; inconclusive = small, poorly fitted or top-dose-only effect, or effect the other way; inactive = flat fitted curve, though single readings scatter. Where the call is inconclusive, the potency comes from a doubtful curve fit.
# Assay: qHTS screen for small molecules that inhibit ELG1-dependent DNA repair in human embryonic kidney (HEK293T) cells expressing luciferase-tagged ELG1; also: nearly all actives have a fitted effect of over 55% in size
# Settings: HEK293T ELG1-luciferase reporter, luminescence, 16 h, DNA damage induced by 5-fluorouridine; series mostly up to 46.1 µM
# How it was run: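 5-Fluorouridine DNA damage + compound/DMSO, 2,000 cells/well, 16 h, 37 °C/5% CO2. ONE-Glo, 30 min RT, luminescence. Readout = decrease in reporter signal.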
# Potency is read from the fitted curve at half-maximal effect.
row,SMILES,Potency
1,Cc1cc(C)c2nc(N3CCC(C(=O)N4CCN(C(=O)c5ccco5)CC4)CC3)sc2c1,active: 16.4 µM
2,CCN(CC)S(=O)(=O)c1ccc(Cl)c(C(=O)Nc2nnc(C)s2)c1,inactive
3,COc1ccc(CC(=O)Nc2ccc(-c3nc4cc(C)ccc4o3)c(O)c2)cc1OC,"inconclusive: 18.4 µM [activator, partial curve]"
4,CN(C)c1ccc(C(CNC(=O)COc2ccc(Cl)cc2)N2CCCC2)cc1 (centres undefined),inactive
5,COc1ccc2sc(-c3ccccc3OC)c(C#Cc3cncn3C)c2c1,"inconclusive: 29.1 µM [inhibitor, single point]"
6,NC(=O)c1ccc(NC(=O)c2ccc(COc3ccccc3Br)cc2)cc1,"inconclusive: 29.1 µM [activator, single point]"
7,Cn1c(CSc2nc3ccccc3s2)n[nH]c1=S,"inconclusive: 14.6 µM [activator, partial curve]"
8,COc1ccc2oc(C(=O)OCc3c(C)noc3C)c(C)c2c1,"inconclusive: 29.1 µM [inhibitor, partial curve, poor fit]"
9,O=C(Oc1ccc[nH]c1=O)c1cc([N+](=O)[O-])cc([N+](=O)[O-])c1,"inconclusive: 29.1 µM [inhibitor, single point]"
10,O=C(c1ccccc1)N1CCN(C(=O)c2cc3nc(-c4ccccc4)cc(C(F)(F)F)n3n2)CC1,active: 7.3 µM
11,O=CN1CCN(S(=O)(=O)c2ccc(S(=O)(=O)NC3CCCCC3)cc2)CC1,inactive
12,CN(c1ccccc1)S(=O)(=O)c1cccc(C(=O)Nc2cccc(C(=O)NC3CC3)c2)c1,"inconclusive: 13 µM [inhibitor, partial curve, poor fit]"
13,CCC(=O)NC(NC(=S)Nc1cccc2cccnc12)C(Cl)(Cl)Cl (centres undefined),inactive
14,Cc1ccc(NC(=O)CCC(=O)c2cccs2)nc1,"inconclusive: 4.61 µM [activator, single point]"
15,O=C(c1cc(=O)c2ccccc2o1)N1CCN(c2ccccc2F)CC1,inactive
16,CCN(CC)S(=O)(=O)c1ccc(NC(=O)Nc2cccc(C(F)(F)F)c2)cc1,"inconclusive: 14.6 µM [inhibitor, partial curve]"
17,CCOC(=O)N/N=C/c1ccc(OCCSc2ccc(Cl)cc2)c(OCC)c1,"inconclusive: 18.4 µM [inhibitor, single point]"
18,COc1cccc(Cn2c(C3CC3)nc3ccc(NC(=O)c4ccco4)cc3c2=O)c1,active: 23.1 µM
19,C=CCn1c(SCC(=O)NCc2ccco2)nc2sc3c(c2c1=O)CCC3,"inconclusive: 25.9 µM [inhibitor, single point]"
20,Cc1ccc(N/C=C/c2onc(C)c2[N+](=O)[O-])cc1,"inconclusive: 1.46 µM [activator, partial curve]"
21,COc1ccc(S(=O)(=O)NCc2ccccn2)c(C)c1C,inactive
22,Cc1cc(C)nc(SC(C)C(=O)O)n1 (centres undefined),inactive
23,C=CCNC(=S)Nc1ccc(N(C)C)cc1,"inconclusive: 18.3 µM [activator, partial curve, poor fit]"

row,SMILES,Potency
1,C[C@H](CO)N1C[C@H](C)[C@@H](CN(C)C(=O)Nc2ccc(C(F)(F)F)cc2)Oc2ccc(NC(=O)Cc3ccccc3)cc2C1=O,inactive
2,COc1cc2c(cc1OC)-c1cc(OCc3cccnc3)nc(=O)n1CC2,"inconclusive: 10 µM [inhibitor, partial curve, poor fit]"
3,CC(C)(C)c1ccc(C(=O)Nc2ccccc2Cl)cc1,"inconclusive: 2.06 µM [activator, partial curve]"
4,COc1ccc(OC)c(C(=O)NC(CC(N)=O)c2ccc(N3CCCCCC3)c([N+](=O)[O-])c2)c1 (centres undefined),inactive
5,O=C(Nc1ccccc1)Nc1ccc2snnc2c1,"inconclusive: 4.11 µM [activator, full curve]"
6,CCC1CCCCN1CCCNC(=O)CN1C(=O)c2cccnc2Oc2ccc(C)cc21 (centres undefined),inactive
7,CS(=O)(=O)Nc1cccc(C2=NN(C(=O)CCCC(=O)O)C(c3cccs3)C2)c1 (centres undefined),inactive
8,Cc1ccc(S(=O)(=O)N2CCOCC2)cc1NC(=O)COC(=O)CCC(=O)c1cccs1,"inconclusive: 5.62 µM [inhibitor, single point]"
9,COc1ccc(OCC(=O)NNC(=O)c2ccccn2)cc1,inactive
10,Cc1cc(-c2nnc(CCC(=O)N(C)CCc3ccccc3)o2)no1,"inconclusive: 2.59 µM [activator, full curve, poor fit]"
11,CCOC(=O)c1ccc(N/C=C2\CCCCC2=O)cc1,"inconclusive: 4.11 µM [activator, full curve]"
12,CCOc1ccc(NC(=O)C2(c3ccc(OC)c(OC)c3)CCCC2)cc1,"inconclusive: 32.6 µM [inhibitor, single point]"
13,CCOc1ccc(C(=O)CCC(=O)N(CC)CC(=O)NCc2cccs2)cc1,"inconclusive: 18.3 µM [activator, partial curve]"
14,Cc1ccc(-c2nc3ncccn3c2Nc2ccc3c(c2)OCCO3)o1,"inconclusive: 29.1 µM [activator, single point]"
15,COc1ccc(C2/C=C\CN(C(=O)c3ccc(C)cc3)[C@H](Cc3ccccc3)C(=O)N2Cc2ccc(F)cc2)cc1 (some centres undefined),"inconclusive: 29.1 µM [inhibitor, single point]"
16,COc1ccccc1C(=O)NCc1nnc(SCC(=O)Nc2nccs2)n1C,inactive
17,CC(=O)Nc1ccc(S(=O)(=O)NCC2CCC(C(=O)N3CC(C)CC(C)C3)CC2)cc1 (centres undefined),"inconclusive: 18.3 µM [inhibitor, partial curve]"
18,COc1ccc(C(=O)COC(=O)CCNS(=O)(=O)c2ccccc2)c(OC)c1,inactive
19,O=C(CSC1=NC(=O)C(c2ccccc2)C(=O)N1)Nc1ccccc1[N+](=O)[O-] (centres undefined),inactive
20,CCc1ccccc1Nc1nc(N)nc(COC(=O)C2CCN(C(=O)c3ccc(F)cc3)CC2)n1,inactive
21,C=CCSc1nc(=O)n2ccc(C)cc2n1,"inconclusive: 29.1 µM [activator, single point]"
22,CCCN1C(=O)N(c2cccc(C)c2)C(C)(O)CC1(C)C (centres undefined),inactive
23,CCN(CC)C(=O)c1[nH]cnc1C(=O)N[C@@H](Cc1ccccc1)C(=O)OCc1ccccc1,inactive

# Pulled by structure from above (4):
row,SMILES,Potency
13,CCOc1ccc(C(=O)CCC(=O)N(CC)CC(=O)NCc2cccs2)cc1,"inconclusive: 18.3 µM [activator, partial curve]"
14,Cc1ccc(-c2nc3ncccn3c2Nc2ccc3c(c2)OCCO3)o1,"inconclusive: 29.1 µM [activator, single point]"
4,COc1ccc(OC)c(C(=O)NC(CC(N)=O)c2ccc(N3CCCCCC3)c([N+](=O)[O-])c2)c1 (centres undefined),inactive
17,CC(=O)Nc1ccc(S(=O)(=O)NCC2CCC(C(=O)N3CC(C)CC(C)C3)CC2)cc1 (centres undefined),"inconclusive: 18.3 µM [inhibitor, partial curve]"

# Going on with the list.

row,SMILES,Potency
1,CCN(c1ccccc1)S(=O)(=O)c1ccc(NC(=S)NC(=O)c2cccs2)cc1,active: 13 µM
2,COc1cccc(C2NC(=O)NC(C)=C2C(=O)OCC2CCCCC2)c1 (centres undefined),inactive
3,Cc1ccc2[nH]c(C)cc(=S)c2c1,inactive
4,CCCN(CC(=O)Nc1ccccc1C)C(=O)CCCNC(=O)c1ccc(Cl)cc1,inactive
5,CNC(=O)c1cc2c(ccc3ccccc32)o1,"inconclusive: 23.1 µM [activator, partial curve]"
6,Cn1c(=O)[nH]c(=O)c2c1nc(CN1CCN(c3ccccc3F)CC1)n2CCc1ccccc1,"inconclusive: 9.2 µM [inhibitor, partial curve, poor fit]"
7,Cc1ccc(C)c(OCC(=O)Nc2cc(C)on2)c1,"inconclusive: 20.6 µM [activator, partial curve]"
8,CCCN1CCC(Oc2cccc(C(=O)NCCc3ccccc3)c2)CC1,"inconclusive: 18.3 µM [activator, single point]"
9,COc1cccc(CN2CCNC(=O)C2CC(=O)N(C)Cc2nc(C)cs2)c1OC (centres undefined),inactive
10,COc1ccc(Nc2nnc(-c3ccccc3)c3ccccc23)cc1C(=O)N1CCCCC1,"inconclusive: 2.59 µM [inhibitor, full curve, poor fit]"
11,CCS(=O)(=O)c1ncc(Cl)c(C(=O)Nc2ccc(S(=O)(=O)N3CCC(C)CC3)cc2)n1,"inconclusive: 29.1 µM [inhibitor, single point]"
12,O=C(CCC1CCCN(C(=O)c2ccc3cc[nH]c3c2)C1)N1CCN(c2ccccn2)CC1 (centres undefined),"inconclusive: 18.3 µM [inhibitor, single point]"
13,Cc1ccc(-n2c(C)cc(/C=c3/sc4nc5ccccc5n4c3=O)c2C)cc1,"inconclusive: 2.31 µM [activator, full curve]"
14,COc1cc2c(c(OC)c1OC)C(c1ccc(O)cc1)CC(=O)O2 (centres undefined),"inconclusive: 20.6 µM [activator, partial curve]"
15,CN1C(=O)C2(CCCCC2)C1c1ccccc1 (centres undefined),"inconclusive: 20.6 µM [activator, single point]"
16,Cc1ccc(-c2cc(C(=O)N3CCOCC3)no2)cc1,"inconclusive: 0.651 µM [activator, full curve]"
17,COc1cccc(NC(=O)C(Sc2nnc(Nc3ccccc3C)s2)c2ccccc2)c1 (centres undefined),"inconclusive: 18.4 µM [inhibitor, single point]"
18,COc1cc(-c2nc3cnccn3c2Nc2ccc(C)cc2)ccc1O,"inconclusive: 7.31 µM [activator, partial curve]"
19,CC(C)CN(C(=O)COC(=O)Cc1cccc2ccccc12)c1c(N)n(Cc2ccccc2)c(=O)[nH]c1=O,inactive
20,Cc1cc2c(cc1S(=O)(=O)N1CCN(c3cccc(C)c3C)CC1)OCC(=O)N2,"inconclusive: 32.6 µM [inhibitor, partial curve, poor fit]"
21,COc1cc(CN2CC(=O)N(c3cccc(Cl)c3C)C2=S)cc(OC)c1OC,"inconclusive: 32.6 µM [inhibitor, partial curve, poor fit]"
22,CCc1cc(CNC(=O)CCc2nnc(CCCc3ccccc3)o2)on1,"inconclusive: 16.4 µM [activator, partial curve]"
23,CC(=O)Nc1ccc(S(=O)(=O)N2CCC(c3nnc(-c4ccc(C)cc4)o3)CC2)cc1,"inconclusive: 18.3 µM [inhibitor, single point]"
